Results deposited as PubChem BioAssay AID686938 (Drosophila RNAi Screening Center, 2013)

Screen: 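Fly genes required for calcium entry once internal stores are emptied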 (primary screen)
Cells: Drosophila S2R+ cells
Knock-down reagent: long dsRNA against Drosophila genes, about 0.25 µg dsRNA per well, roughly 10,000 cells
Duration: 5 days of knock-down before the calcium assay
Treatment: thapsigargin (SERCA pump blocker) to empty calcium stores; entry signal taken 4 min after adding it
Detection: 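Duplicate raw fluo-4 intensities per well from a plate reader, at rest and four minutes after thapsigargin emptied calcium stores; entry-to-rest ratio filled for only some wells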
Scale: calcium entry signal: higher = stronger calcium signal after store depletion; entry to resting ratio: higher = more calcium entry relative to resting level; resting calcium signal: higher = higher resting calcium signal
Units: calcium entry signal in fluorescence units; resting calcium signal in fluorescence units
Rule for the call: 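Called when the plate z-score of the entry-to-rest ratio, mean of duplicates, falls below −3; wells with low overall dye signal (Fmax z below −2) or more than five off-targets excluded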
Calls: active = strongly reduced calcium entry; inactive = no strong reduction
The deposit covers about 23,000 reagents; this is an unselected part of those that have a named target and a result. Of all reagents, 75 (0.33%) got an active call. 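Raw plate signals without normalisation; calls rest on plate z-scores that were not deposited; ratio present for only 364 wells.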 A plus sign joins genes that one reagent is predicted to hit. Not stated in the record: the dose of the treatment.

Silencing of Sras (severas) [DRSC11287] came out at: calcium entry signal, replicate 1 = 3.79e7; calcium entry signal, replicate 2 = 5.69e7; resting calcium signal, replicate 1 = 1.76e7; resting calcium signal, replicate 2 = 2.45e7; inactive.
Against CG13390 [DRSC02261], the entry reads calcium entry signal, replicate 1 = 2.54e7; calcium entry signal, replicate 2 = 5.61e7; resting calcium signal, replicate 1 = 1.32e7; resting calcium signal, replicate 2 = 2.17e7; inactive.
Against CG17121 [DRSC15176], the entry reads calcium entry signal, replicate 1 = 4.75e7; calcium entry signal, replicate 2 = 6.30e7; resting calcium signal, replicate 1 = 2.42e7; resting calcium signal, replicate 2 = 2.46e7; inactive.
CG10324 [DRSC14230] scored calcium entry signal, replicate 1 = 1.67e7; calcium entry signal, replicate 2 = 2.50e7; resting calcium signal, replicate 1 = 1.07e7; resting calcium signal, replicate 2 = 5.41e7; inactive.
Against RpS10b (Ribosomal protein S10b) [DRSC19561], the entry reads calcium entry signal, replicate 1 = 3.80e7; calcium entry signal, replicate 2 = 3.48e7; resting calcium signal, replicate 1 = 2.10e7; resting calcium signal, replicate 2 = 1.82e7; inactive.
Knock-down of Hsp70Aa + Hsp70Bb + Hsp70Ba + 3 more [DRSC15380] resulted in: calcium entry signal, replicate 1 = 3.51e7; calcium entry signal, replicate 2 = 3.81e7; resting calcium signal, replicate 1 = 1.63e7; resting calcium signal, replicate 2 = 2.03e7; inactive.
Depletion of ewg (erect wing) [DRSC18773] came out at: calcium entry signal, replicate 1 = 3.91e7; calcium entry signal, replicate 2 = 3.09e7; entry to resting ratio 2.1; resting calcium signal, replicate 1 = 1.82e7; resting calcium signal, replicate 2 = 1.49e7; inactive.
For Eig71Ej [DRSC11157], the entry reads calcium entry signal, replicate 1 = 4.58e7; calcium entry signal, replicate 2 = 6.05e7; resting calcium signal, replicate 1 = 2.16e7; resting calcium signal, replicate 2 = 2.59e7; inactive.
Silencing of Spx (Spliceosomal protein on the X) [DRSC18720] came out at: calcium entry signal, replicate 1 = 1.79e7; calcium entry signal, replicate 2 = 2.39e7; resting calcium signal, replicate 1 = 1.33e7; resting calcium signal, replicate 2 = 1.73e7; inactive.
Knock-down of Rab39 [DRSC17827] resulted in: calcium entry signal, replicate 1 = 3.70e7; calcium entry signal, replicate 2 = 3.85e7; resting calcium signal, replicate 1 = 1.71e7; resting calcium signal, replicate 2 = 1.85e7; inactive.
Against S-Lap1 (Sperm-Leucylaminopeptidase 1) [DRSC10627], the entry reads calcium entry signal, replicate 1 = 4.84e7; calcium entry signal, replicate 2 = 2.82e7; resting calcium signal, replicate 1 = 3.19e7; resting calcium signal, replicate 2 = 1.34e7; inactive.
With knock-down of Hsp60B (Heat shock protein 60B) [DRSC00542] the results were calcium entry signal, replicate 1 = 4.35e7; resting calcium signal, replicate 1 = 2.04e7; inactive.
With knock-down of CG2975 [DRSC00556] the results were calcium entry signal, replicate 1 = 3.19e7; calcium entry signal, replicate 2 = 3.69e7; resting calcium signal, replicate 1 = 1.77e7; resting calcium signal, replicate 2 = 1.64e7; inactive.
Silencing of bmm (brummer) [DRSC10502] resulted in: calcium entry signal, replicate 1 = 3.15e7; calcium entry signal, replicate 2 = 4.26e7; resting calcium signal, replicate 1 = 1.52e7; resting calcium signal, replicate 2 = 2.80e7; inactive.
With knock-down of Syp (Syncrip) [DRSC13444], the screen gave calcium entry signal, replicate 1 = 3.48e7; calcium entry signal, replicate 2 = 2.80e7; resting calcium signal, replicate 1 = 1.80e7; resting calcium signal, replicate 2 = 1.31e7; inactive.
Depletion of Syp (Syncrip) [DRSC15286] gave: calcium entry signal, replicate 1 = 4.08e7; calcium entry signal, replicate 2 = 2.94e7; resting calcium signal, replicate 1 = 1.88e7; resting calcium signal, replicate 2 = 1.44e7; inactive.
CG12811 [DRSC14549] gave calcium entry signal, replicate 1 = 2.36e7; calcium entry signal, replicate 2 = 1.84e7; resting calcium signal, replicate 1 = 1.14e7; resting calcium signal, replicate 2 = 1.01e7; inactive.
Silencing of yip2 (yippee interacting protein 2) [DRSC03640] gave: calcium entry signal, replicate 1 = 3.71e7; calcium entry signal, replicate 2 = 4.72e7; resting calcium signal, replicate 1 = 1.83e7; resting calcium signal, replicate 2 = 2.18e7; inactive.
Silencing of Tsp42Eq (Tetraspanin 42Eq) [DRSC06180] came out at: calcium entry signal, replicate 1 = 3.17e7; calcium entry signal, replicate 2 = 3.97e7; resting calcium signal, replicate 1 = 1.48e7; resting calcium signal, replicate 2 = 1.71e7; inactive.
Knock-down of Rbf (Retinoblastoma-family protein) [DRSC18704] came out at: calcium entry signal, replicate 1 = 4.58e7; calcium entry signal, replicate 2 = 3.74e7; resting calcium signal, replicate 1 = 2.01e7; resting calcium signal, replicate 2 = 1.80e7; inactive.
After knock-down of CG34433 [DRSC15077] the results were calcium entry signal, replicate 1 = 3.95e7; calcium entry signal, replicate 2 = 5.48e7; resting calcium signal, replicate 1 = 1.89e7; resting calcium signal, replicate 2 = 2.21e7; inactive.

Entries listed so far whose target name starts with R or r (3):
RpS10b (Ribosomal protein S10b) [DRSC19561] — calcium entry signal, replicate 1 = 3.80e7; calcium entry signal, replicate 2 = 3.48e7; resting calcium signal, replicate 1 = 2.10e7; resting calcium signal, replicate 2 = 1.82e7; call = inactive
Rab39 [DRSC17827] — calcium entry signal, replicate 1 = 3.70e7; calcium entry signal, replicate 2 = 3.85e7; resting calcium signal, replicate 1 = 1.71e7; resting calcium signal, replicate 2 = 1.85e7; call = inactive
Rbf (Retinoblastoma-family protein) [DRSC18704] — calcium entry signal, replicate 1 = 4.58e7; calcium entry signal, replicate 2 = 3.74e7; resting calcium signal, replicate 1 = 2.01e7; resting calcium signal, replicate 2 = 1.80e7; call = inactive
